Data taken from publication PMC4022726.
These are yes or no findings as the source states them, for the method shown. Some entries that bind do so weakly or less than the wild type. Sequences can lack the tags named with a protein.

B1: μ1B subunit of AP-1 (Gal4 activation domain fusion) (protein, UniProt Q9Y6Q5 1-423)
chain: MSASAVFILDVKGKPLISRNYKGDVAMSKIEHFMPLLVQREEEGALAPLLSHGQVHFLWIKHSNLYLVATTSKNANASLVYSFLYKTIEVFCEYFKELEEESIRDNFVIVYELLDELMDFGFPQTTDSKILQEYITQQSNKLETGKSRVPPTVTNAVSWRSEGIKYKKNEVFIDVIESVNLLVNANGSVLLSEIVGTIKLKVFLSGMPELRLGLNDRVLFELTGRSKNKSVELEDVKFHQCVRLSRFDNDRTISFIPPDGDFELMSYRLSTQVKPLIWIESVIEKFSHSRVEIMVKAKGQFKKQSVANGVEISVPVPSDADSPRFKTSVGSAKYVPERNVVIWSIKSFPGGKEYLMRAHFGLPSVEKEEVEGRPPIGVKFEIPYFTVSGIQVRYMKIIEKSGYQALPWVRYITQSGDYQLRTS
B2: μ3A subunit of AP-3 (Gal4 activation domain fusion) (protein, UniProt P53676 1-418)
chain: MIHSLFLINCSGDIFLEKHWKSVVSQSVCDYFFEAQEKAADVENVPTVISTPHHYLISIYRDKLFFVSVIQTEVPPLFVIEFLHRVADTFQDYFGECSEAAIKDNVVIVYELLEEMLDNGFPLATESNILKELIKPPTILRSVVNSITGSSNVGDTLPTGQLSNIPWRRAGVKYTNNEAYFDVVEEIDAIIDKSGSTVFAEIQGVIDACIKLSGMPDLSLSFMNPRLLDDVSFHPCIRFKRWESERVLSFIPPDGNFRLISYRVSSQNLVAIPVYVKHNISFKENSSCGRFDITIGPKQNMGKTIEGITVTVHMPKVVLNMNLTPTQGSYTFDPVTKVLAWDVGKITPQKLPSLKGLVNLQSGAPKPEENPNLNIQFKIQQLAISGLKVNRLDMYGEKYKPFKGVKYITKAGKFQVRT
B3: μ4 subunit of AP-4 (Gal4 activation domain fusion) (protein, UniProt O00189 1-453)
chain: MISQFFILSSKGDPLIYKDFRGDSGGRDVAELFYRKLTGLPGDESPVVMHHHGRHFIHIRHSGLYLVVTTSENVSPFSLLELLSRLATLLGDYCGSLGEGTISRNVALVYELLDEVLDYGYVQTTSTEMLRNFIQTEAVVSKPFSLFDLSSVGLFGAETQQSKVAPSSAASRPVLSSRSDQSQKNEVFLDVVERLSVLIASNGSLLKVDVQGEIRLKSFLPSGSEMRIGLTEEFCVGKSELRGYGPGIRVDEVSFHSSVNLDEFESHRILRLQPPQGELTVMRYQLSDDLPSPLPFRLFPSVQWDRGSGRLQVYLKLRCDLLSKSQALNVRLHLPLPRGVVSLSQELSSPEQKAELAEGALRWDLPRVQGGSQLSGLFQMDVPGPPGPPSHGLSTSASPLGLGPASLSFELPRHTCSGLQVRFLRLAFRPCGNANPHKWVRHLSHSDAYVIRI

Each binder was assayed against NiV-G cytosolic tail (residues 1-45) (Nipah virus) (UniProt Q9IH62) (assay: two-hybrid).

Question: How did the binding turn out when B1 was run?
Answer: Its binding is “no binding”.

Question: How did the binding turn out when B2 was run?
Answer: Its binding is “no binding”.

Question: Which binding does the source give for B3 here?
Answer: Its binding is “no binding”.

Each binder was assayed against NiV-F cytosolic tail (residues 519-546) (Nipah virus) (UniProt Q9IH63) (assay: two-hybrid).

Question: With B1 as the binder, how does the binding read?
Answer: Its binding is “binds”.

Question: How did the binding turn out when B2 was run?
Answer: Its binding is “binds”.

Question: How did the binding turn out when B3 was run?
Answer: The binding was “binds”.
